This is an account of results in paper PMC11765430.

Amino acid sequences for entries named in this document (tags omitted).
UniProt Q12983: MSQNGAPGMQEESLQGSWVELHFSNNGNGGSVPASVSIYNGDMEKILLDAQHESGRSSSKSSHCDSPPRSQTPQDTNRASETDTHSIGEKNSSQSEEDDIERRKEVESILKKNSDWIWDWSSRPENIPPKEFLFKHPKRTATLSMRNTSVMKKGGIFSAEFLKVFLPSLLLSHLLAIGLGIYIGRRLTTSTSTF
UniProt P10415: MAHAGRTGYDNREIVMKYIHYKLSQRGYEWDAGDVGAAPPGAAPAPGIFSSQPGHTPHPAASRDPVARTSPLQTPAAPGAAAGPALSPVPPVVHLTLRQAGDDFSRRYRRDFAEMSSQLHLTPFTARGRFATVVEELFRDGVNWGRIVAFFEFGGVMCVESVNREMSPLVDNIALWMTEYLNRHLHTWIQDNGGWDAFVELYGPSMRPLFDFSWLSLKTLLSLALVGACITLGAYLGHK
UniProt Q14457: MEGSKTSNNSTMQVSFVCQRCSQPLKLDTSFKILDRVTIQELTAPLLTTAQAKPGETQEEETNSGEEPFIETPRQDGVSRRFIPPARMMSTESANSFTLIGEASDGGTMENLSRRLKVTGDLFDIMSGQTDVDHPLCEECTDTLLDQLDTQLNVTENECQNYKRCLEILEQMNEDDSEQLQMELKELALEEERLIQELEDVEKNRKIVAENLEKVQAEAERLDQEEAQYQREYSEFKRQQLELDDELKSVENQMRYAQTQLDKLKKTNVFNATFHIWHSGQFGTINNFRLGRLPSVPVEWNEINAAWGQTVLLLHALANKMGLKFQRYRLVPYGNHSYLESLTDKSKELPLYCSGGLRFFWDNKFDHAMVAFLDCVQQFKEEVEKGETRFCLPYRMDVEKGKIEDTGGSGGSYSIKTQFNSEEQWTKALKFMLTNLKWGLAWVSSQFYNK

The test has as its target BNIP3 (human (endogenous in KGN)) (UniProt Q12983). The test is described as follows: co-IP; KGN whole-cell extracts (IP lysis buffer with PMSF) incubated with anti-BNIP3 antibody at 4 °C for 12 h, Protein A/G magnetic beads 1 h at room temperature, immunoblot of the precipitates; cells cultured under hypoxia or normoxia, with or without 15 mM 2-DG, 15 mM oxamate, 3 mM α-CHCA, 15 mM Nala.

These are yes or no findings as the source states them, for the method shown. In cells and extracts the contact can be indirect. Some entries that bind do so weakly or less than the wild type.

As for Bcl-2 (from UniProt P10415 1-239), the binding entry was “binds”.
In the case of Beclin-1 (from UniProt Q14457 1-450) it was “binds”.
